Measured values reported in patent US20170246129A1, “COMPOSITION USING GUANIDINE COMPOUND FOR SUPPRESSING TRANSFORMING GROWTH FACTOR (TGF)-beta” (Peking University Third Hospital, priority 2016, published 2017).
At least one compound was matched to its structure with a doubt left.

System: TGFβ1 induced phosphorylated Smad3 (p-Smad3)
Assay: Western blotting of TGFβ1 induced phosphorylated Smad3 in 3T3 cells
Assay type: cell-based, mouse
Settings: compound 1 mmol/L premixed with TGF-β1 (5 ng/mL) for 2 h, 3T3 cells treated 30 min, FIG. 9
Method: 2: Moroxydinehydrochloride (dissovled in ddH2O, 1 mmol/L); 3: Phenylbiguanide (dissolved in DMSO, 1 mmoL/L); 4: 1-(2,3-Dichlorophenyl) biguanide hydrochloride (dissolved in DMSO, 1 mmoL/L); 5: 1,3-Di(o-tolyl)guanidine (dissolved in DMSO, 1mmoL/L); 6: Buformin hydrochloride (dissolved in EtOH, 1 mmol/L). These compounds and TGF-β1 (5 ng/mL) were premixed for 2 h separately and then 3T3 cells were treated with the mixture for 30 min prior to sample collection. […] Bicinchoninic acid reagents were used to measure the protein concentration. Equal amounts of proteins were separated by SDS-PAGE and transferred to polyvinylidene difluoride membranes. The blots were immunoreacted with primary antibodies and secondary antibodies conjugated with horseradish peroxidase. […] GAPDH antibodies were purchased from Santa Cruz Biotechnology (Santa Cruz, Calif., USA). Protein bands were visualized by enhanced chemiluminescence detection and the intensity was quantified by use of Image-J software.

N=C(N)NC(N)=Nc1ccccc1 [phenylbiguanide, Phenylbiguanide]
effect on p-Smad3 induced by TGFβ1: attenuate
